Laboratory results reported in the supplement of paper PMC12137928.
Where a name gives a salt, the structure may show the parent alone.

System: HCT116
Details: 72 h
How it was run: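 After seeding at 250 cells per well in 1536-well plates, HCT116 cells were given 5 h to attach. CellTiter-Glo luminescence, scaled to 0% for vehicle and -100% for positive control, was pattern-corrected. Fitting with a four-parameter Hill model produced IC50 and maximal efficacy.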

Row | IC50 cell viability (ICRF193 0 nM) [µM] | IC50 cell viability (ICRF193 200 nM) [µM] | SMILES
1 | > 45.8 | > 45.8 | CN1[C@@H]2CC[C@H]1C[C@@H](OC(=O)C(O)c1ccccc1)C2 (some centres undefined) [Homatropine hydrobromide]
2 | > 45.8 | > 45.8 | CCC(C)C(C(=O)OCC[N+](C)(CC)CC)c1ccccc1 (centres undefined)
